# Values quoted from earlier work as cited in paper PMC6390583 (BMC rheumatology, 2018).
# Tests used:
# [1] = system: IL-6 induced pSTAT3, CD14+ whole blood; conditions: read-out: IC50, IL-6 signaling in human whole blood; monocytes; cited from earlier work
# [2] = system: IL-6 induced pSTAT3, CD3+ whole blood; conditions: read-out: IC50, IL-6 signaling in human whole blood; CD3+ T-cells; cited from earlier work
smiles,measurement,setting,value
"C[C@@H]1CCN(C(=O)CC#N)C[C@@H]1N(C)c1ncnc2[nH]ccc12 [tofacitinib, reference compound]",IC50,[1],406 nM
same,IC50,[2],367 nM
